Measured values from paper PMC12226361.

Chains of the proteins cited; added tags and fusions are not shown.
UniProt Q7Z6Z7: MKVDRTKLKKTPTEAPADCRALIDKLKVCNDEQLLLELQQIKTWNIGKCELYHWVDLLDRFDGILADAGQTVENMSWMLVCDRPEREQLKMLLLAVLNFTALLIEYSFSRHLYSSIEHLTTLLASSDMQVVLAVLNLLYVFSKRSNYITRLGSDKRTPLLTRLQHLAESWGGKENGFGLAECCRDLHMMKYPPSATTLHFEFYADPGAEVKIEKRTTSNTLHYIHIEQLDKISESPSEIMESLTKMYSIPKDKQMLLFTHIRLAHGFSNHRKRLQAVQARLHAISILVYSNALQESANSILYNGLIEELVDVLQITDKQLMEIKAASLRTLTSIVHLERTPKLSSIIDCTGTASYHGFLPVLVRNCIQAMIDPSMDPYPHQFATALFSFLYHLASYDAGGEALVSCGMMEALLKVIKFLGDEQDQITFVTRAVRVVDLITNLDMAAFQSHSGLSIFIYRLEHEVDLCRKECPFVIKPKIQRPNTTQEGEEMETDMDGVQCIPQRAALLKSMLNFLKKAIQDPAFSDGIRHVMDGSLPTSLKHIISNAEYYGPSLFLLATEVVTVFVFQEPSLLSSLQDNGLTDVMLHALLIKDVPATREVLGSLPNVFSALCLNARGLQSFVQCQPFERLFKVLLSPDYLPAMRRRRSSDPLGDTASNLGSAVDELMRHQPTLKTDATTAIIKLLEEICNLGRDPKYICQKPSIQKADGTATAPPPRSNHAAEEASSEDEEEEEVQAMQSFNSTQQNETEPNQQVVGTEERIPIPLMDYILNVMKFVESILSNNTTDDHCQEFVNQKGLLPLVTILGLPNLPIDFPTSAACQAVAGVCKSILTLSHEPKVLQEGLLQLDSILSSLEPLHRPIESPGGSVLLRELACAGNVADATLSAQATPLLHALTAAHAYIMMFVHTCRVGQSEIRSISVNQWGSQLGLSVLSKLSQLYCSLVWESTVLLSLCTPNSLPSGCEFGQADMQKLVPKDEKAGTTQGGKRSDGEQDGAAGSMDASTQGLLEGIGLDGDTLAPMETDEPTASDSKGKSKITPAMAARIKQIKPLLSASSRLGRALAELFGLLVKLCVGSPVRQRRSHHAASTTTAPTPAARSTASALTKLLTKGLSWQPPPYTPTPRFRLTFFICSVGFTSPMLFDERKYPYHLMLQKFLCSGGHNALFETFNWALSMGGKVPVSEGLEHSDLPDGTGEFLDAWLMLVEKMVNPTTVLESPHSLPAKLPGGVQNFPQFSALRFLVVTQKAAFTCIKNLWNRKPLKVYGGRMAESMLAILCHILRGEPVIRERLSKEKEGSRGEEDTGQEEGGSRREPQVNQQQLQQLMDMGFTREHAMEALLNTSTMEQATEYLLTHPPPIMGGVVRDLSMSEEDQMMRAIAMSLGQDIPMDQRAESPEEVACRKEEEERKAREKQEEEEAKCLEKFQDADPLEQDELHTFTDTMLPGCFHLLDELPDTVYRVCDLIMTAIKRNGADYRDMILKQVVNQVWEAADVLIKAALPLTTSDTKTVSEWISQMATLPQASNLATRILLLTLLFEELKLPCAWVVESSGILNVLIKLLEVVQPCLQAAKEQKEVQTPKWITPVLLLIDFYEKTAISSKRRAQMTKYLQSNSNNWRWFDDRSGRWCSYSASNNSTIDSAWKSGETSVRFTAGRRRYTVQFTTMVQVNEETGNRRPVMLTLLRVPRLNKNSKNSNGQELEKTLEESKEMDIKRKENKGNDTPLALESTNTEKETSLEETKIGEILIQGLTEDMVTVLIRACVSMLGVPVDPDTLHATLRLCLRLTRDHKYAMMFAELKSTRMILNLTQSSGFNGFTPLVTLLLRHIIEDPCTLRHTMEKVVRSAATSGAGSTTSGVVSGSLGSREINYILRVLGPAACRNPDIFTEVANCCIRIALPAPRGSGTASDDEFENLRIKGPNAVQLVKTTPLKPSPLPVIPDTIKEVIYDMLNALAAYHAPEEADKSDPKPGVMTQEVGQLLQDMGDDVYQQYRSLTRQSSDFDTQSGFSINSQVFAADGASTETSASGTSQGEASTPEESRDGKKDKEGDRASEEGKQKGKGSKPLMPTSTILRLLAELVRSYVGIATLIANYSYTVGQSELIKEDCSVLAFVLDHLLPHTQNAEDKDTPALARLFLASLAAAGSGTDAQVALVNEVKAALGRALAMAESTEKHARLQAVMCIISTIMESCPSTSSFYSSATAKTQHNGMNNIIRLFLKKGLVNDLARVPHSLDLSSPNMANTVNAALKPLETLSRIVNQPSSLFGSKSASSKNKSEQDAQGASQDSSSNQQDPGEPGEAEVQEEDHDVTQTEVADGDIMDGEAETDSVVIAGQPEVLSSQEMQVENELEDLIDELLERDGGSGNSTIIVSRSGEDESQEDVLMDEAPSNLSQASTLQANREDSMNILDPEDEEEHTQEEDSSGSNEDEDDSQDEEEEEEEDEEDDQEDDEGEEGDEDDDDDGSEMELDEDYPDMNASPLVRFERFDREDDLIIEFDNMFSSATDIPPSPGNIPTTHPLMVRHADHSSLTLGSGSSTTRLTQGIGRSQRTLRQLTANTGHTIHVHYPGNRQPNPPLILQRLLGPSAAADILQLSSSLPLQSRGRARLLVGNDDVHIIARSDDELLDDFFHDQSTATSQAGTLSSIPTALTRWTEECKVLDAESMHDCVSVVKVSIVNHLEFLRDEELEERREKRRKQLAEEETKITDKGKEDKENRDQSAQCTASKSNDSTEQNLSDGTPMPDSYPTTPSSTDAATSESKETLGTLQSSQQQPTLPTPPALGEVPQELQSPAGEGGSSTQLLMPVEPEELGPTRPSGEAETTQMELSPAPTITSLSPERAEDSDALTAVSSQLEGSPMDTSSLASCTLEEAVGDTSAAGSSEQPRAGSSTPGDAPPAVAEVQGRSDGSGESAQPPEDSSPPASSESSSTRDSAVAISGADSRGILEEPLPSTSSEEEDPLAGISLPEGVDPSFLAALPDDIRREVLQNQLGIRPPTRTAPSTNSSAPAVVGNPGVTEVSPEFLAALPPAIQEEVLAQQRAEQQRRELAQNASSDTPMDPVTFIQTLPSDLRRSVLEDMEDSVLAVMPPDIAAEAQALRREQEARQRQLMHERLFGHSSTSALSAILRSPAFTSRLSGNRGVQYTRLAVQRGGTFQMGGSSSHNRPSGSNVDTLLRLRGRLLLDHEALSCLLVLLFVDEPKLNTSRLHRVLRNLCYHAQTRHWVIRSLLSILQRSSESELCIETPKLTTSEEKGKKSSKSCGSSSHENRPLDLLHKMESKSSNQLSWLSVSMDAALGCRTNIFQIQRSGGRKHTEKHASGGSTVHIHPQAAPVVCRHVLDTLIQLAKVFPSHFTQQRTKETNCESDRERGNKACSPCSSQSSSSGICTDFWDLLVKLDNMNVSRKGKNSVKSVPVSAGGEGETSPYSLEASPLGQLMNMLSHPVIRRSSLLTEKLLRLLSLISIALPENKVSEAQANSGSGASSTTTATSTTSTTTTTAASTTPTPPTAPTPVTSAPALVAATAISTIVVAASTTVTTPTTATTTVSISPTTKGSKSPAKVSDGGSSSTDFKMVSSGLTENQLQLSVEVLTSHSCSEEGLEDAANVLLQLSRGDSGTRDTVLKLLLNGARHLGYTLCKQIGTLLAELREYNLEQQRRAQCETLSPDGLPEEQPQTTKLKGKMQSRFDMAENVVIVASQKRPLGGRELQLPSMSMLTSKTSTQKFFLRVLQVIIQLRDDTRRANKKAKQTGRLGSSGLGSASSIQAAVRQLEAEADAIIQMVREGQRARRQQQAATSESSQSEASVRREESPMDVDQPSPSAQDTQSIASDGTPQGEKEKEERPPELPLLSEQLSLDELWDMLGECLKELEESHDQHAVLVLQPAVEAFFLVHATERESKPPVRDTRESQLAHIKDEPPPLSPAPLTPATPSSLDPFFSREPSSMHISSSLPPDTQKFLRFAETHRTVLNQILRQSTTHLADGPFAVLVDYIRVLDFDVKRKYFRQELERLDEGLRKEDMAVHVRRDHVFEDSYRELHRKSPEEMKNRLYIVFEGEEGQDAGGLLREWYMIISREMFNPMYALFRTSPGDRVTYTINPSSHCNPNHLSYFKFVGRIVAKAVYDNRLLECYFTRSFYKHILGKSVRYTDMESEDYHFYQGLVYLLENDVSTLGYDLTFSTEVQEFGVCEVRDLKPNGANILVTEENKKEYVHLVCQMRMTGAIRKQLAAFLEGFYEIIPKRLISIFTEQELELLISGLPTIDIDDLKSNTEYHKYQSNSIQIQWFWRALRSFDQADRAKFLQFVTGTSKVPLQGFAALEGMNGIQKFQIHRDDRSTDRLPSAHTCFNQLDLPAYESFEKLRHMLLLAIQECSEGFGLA
UniProt P54252: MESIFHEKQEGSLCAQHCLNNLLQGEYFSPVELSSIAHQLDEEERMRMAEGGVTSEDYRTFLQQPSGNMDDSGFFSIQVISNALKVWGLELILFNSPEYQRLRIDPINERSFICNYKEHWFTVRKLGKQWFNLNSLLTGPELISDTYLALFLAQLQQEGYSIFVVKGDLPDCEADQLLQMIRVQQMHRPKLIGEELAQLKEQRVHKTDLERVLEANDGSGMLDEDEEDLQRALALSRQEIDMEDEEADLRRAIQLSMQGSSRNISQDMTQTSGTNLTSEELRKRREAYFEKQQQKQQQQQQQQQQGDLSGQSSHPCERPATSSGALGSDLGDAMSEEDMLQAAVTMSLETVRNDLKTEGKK
UniProt Q07820: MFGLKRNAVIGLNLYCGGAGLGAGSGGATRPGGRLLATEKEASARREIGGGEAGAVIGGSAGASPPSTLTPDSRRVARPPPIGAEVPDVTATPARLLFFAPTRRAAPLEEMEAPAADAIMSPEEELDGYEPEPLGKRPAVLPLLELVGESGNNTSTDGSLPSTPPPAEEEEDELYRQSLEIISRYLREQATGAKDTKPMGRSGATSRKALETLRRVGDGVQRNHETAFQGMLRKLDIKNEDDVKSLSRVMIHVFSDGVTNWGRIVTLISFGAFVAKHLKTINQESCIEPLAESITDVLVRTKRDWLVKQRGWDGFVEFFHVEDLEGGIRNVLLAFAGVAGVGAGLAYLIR

T1: TurboID-tagged RNF10 (UniProt Q8N5U6)
T1 sequence: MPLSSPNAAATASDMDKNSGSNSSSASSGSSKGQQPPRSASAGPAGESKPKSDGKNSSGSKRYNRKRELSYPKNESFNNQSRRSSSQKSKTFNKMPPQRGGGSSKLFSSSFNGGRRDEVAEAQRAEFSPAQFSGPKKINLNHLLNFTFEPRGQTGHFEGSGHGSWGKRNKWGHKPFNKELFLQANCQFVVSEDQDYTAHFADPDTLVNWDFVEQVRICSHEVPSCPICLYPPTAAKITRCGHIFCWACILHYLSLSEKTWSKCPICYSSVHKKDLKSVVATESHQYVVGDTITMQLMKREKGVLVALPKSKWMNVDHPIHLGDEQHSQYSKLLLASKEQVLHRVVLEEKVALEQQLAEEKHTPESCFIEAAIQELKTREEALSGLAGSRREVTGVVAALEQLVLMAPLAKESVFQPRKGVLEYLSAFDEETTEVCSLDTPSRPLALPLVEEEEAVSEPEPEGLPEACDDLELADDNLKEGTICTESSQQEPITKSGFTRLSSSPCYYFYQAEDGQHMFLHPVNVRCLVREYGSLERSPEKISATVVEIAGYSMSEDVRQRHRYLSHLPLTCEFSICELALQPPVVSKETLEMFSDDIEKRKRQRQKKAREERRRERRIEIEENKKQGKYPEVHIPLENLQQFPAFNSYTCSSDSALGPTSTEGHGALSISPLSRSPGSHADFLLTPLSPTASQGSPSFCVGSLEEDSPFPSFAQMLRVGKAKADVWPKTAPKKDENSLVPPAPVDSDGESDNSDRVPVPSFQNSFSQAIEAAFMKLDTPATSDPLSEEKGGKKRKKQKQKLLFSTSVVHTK


How the values were obtained:
TurboID-HUWE1 = TurboID-HUWE1 (UniProt Q7Z6Z7); assay: proximity labelling; TurboID-HUWE1 in 293T and HAP1 cells (PiggyBac, 24 h doxycycline), 100 uM biotin for 60 min; streptavidin-agarose enrichment, DIA mass spectrometry; differential analysis against several TurboID-eGFP controls of varied doxycycline induction time
TurboID-tagged RNF10 = target: T1, TurboID-tagged RNF10; assay: proximity labelling; TurboID-RNF10 in 293 Flp-In cells (24 h doxycycline), 100 uM biotin for 60 min at 37 °C; streptavidin-agarose enrichment from NP-40 lysate, DIA mass spectrometry; differential analysis against TurboID-eGFP controls of varied expression

binding (TurboID-HUWE1)	binding (TurboID-tagged RNF10)	Molecule
binds	–	ATXN3 (from UniProt P54252 1-361)
binds	–	MCL1 (from UniProt Q07820 1-350)
binds	–	VCP (from UniProt P55072 1-806)
binds	–	VCPIP1 (protein, UniProt Q96JH7 1-1222) MSQPPPPPPPLPPPPPPPEAPQTPSSLASAAASGGLLKRRDRRILSGSCPDPKCQARLFFPASGSVSIECTECGQRHEQQQLLGVEEVTDPDVVLHNLLRNALLGVTGAPKKNTELVKVMGLSNYHCKLLSPILARYGMDKQTGRAKLLRDMNQGELFDCALLGDRAFLIEPEHVNTVGYGKDRSGSLLYLHDTLEDIKRANKSQECLIPVHVDGDGHCLVHAVSRALVGRELFWHALRENLKQHFQQHLARYQALFHDFIDAAEWEDIINECDPLFVPPEGVPLGLRNIHIFGLANVLHRPIILLDSLSGMRSSGDYSATFLPGLIPAEKCTGKDGHLNKPICIAWSSSGRNHYIPLVGIKGAALPKLPMNLLPKAWGVPQDLIKKYIKLEEDGGCVIGGDRSLQDKYLLRLVAAMEEVFMDKHGIHPSLVADVHQYFYRRTGVIGVQPEEVTAAAKKAVMDNRLHKCLLCGALSELHVPPEWLAPGGKLYNLAKSTHGQLRTDKNYSFPLNNLVCSYDSVKDVLVPDYGMSNLTACNWCHGTSVRKVRGDGSIVYLDGDRTNSRSTGGKCGCGFKHFWDGKEYDNLPEAFPITLEWGGRVVRETVYWFQYESDSSLNSNVYDVAMKLVTKHFPGEFGSEILVQKVVHTILHQTAKKNPDDYTPVNIDGAHAQRVGDVQGQESESQLPTKIILTGQKTKTLHKEELNMSKTERTIQQNITEQASVMQKRKTEKLKQEQKGQPRTVSPSTIRDGPSSAPATPTKAPYSPTTSKEKKIRITTNDGRQSMVTLKSSTTFFELQESIAREFNIPPYLQCIRYGFPPKELMPPQAGMEKEPVPLQHGDRITIEILKSKAEGGQSAAAHSAHTVKQEDIAVTGKLSSKELQEQAEKEMYSLCLLATLMGEDVWSYAKGLPHMFQQGGVFYSIMKKTMGMADGKHCTFPHLPGKTFVYNASEDRLELCVDAAGHFPIGPDVEDLVKEAVSQVRAEATTRSRESSPSHGLLKLGSGGVVKKKSEQLHNVTAFQGKGHSLGTASGNPHLDPRARETSVVRKHNTGTDFSNSSTKTEPSVFTASSSNSELIRIAPGVVTMRDGRQLDPDLVEAQRKKLQEMVSSIQASMDRHLRDQSTEQSPSDLPQRKTEVVSSSAKSGSLQTGLPESFPLTGGTENLNTETTDGCVADALGAAFATRSKAQRGNSVEELEEMDSQDAEMTNTTEPMDHS
–	binds	iRQC factor RIOK3 (protein, UniProt O14730 1-519) MDLVGVASPEPGTAAAWGPSKCPWAIPQNTISCSLADVMSEQLAKELQLEEEAAVFPEVAVAEGPFITGENIDTSSDLMLAQMLQMEYDREYDAQLRREEKKFNGDSKVSISFENYRKVHPYEDSDSSEDEVDWQDTRDDPYRPAKPVPTPKKGFIGKGKDITTKHDEVVCGRKNTARMENFAPEFQVGDGIGMDLKLSNHVFNALKQHAYSEERRSARLHEKKEHSTAEKAVDPKTRLLMYKMVNSGMLETITGCISTGKESVVFHAYGGSMEDEKEDSKVIPTECAIKVFKTTLNEFKNRDKYIKDDFRFKDRFSKLNPRKIIRMWAEKEMHNLARMQRAGIPCPTVVLLKKHILVMSFIGHDQVPAPKLKEVKLNSEEMKEAYYQTLHLMRQLYHECTLVHADLSEYNMLWHAGKVWLIDVSQSVEPTHPHGLEFLFRDCRNVSQFFQKGGVKEALSERELFNAVSGLNITADNEADFLAEIEALEKMNEDHVQKNGRKAASFLKDDGDPPLLYDE
binds	–	HAPSTR1 (protein, UniProt Q14CZ0 1-275) MEERKEEGEAEIQEHGPEHWFSKWERQCLAEAEQDEQLPPELQEEAAAAAQPEHKQQKLWHLFQNSATAVAQLYKDRVCQQPGLSLWVPFQNAATAVTNLYKESVDTHQRSFDIGIQIGYQRRNKDVLAWVKKRRRTIRREDLISFLCGKVPPPRNSRAPPRLTVVSPNRATSTETSSSVETDLQPFREAIALHGLSGAMASISVRSSTPGSPTHVSSGSNASRRRNGLHDVDLNTFISEEMALHLDNGGTRKRTSAQCGDVITDSPTHKRNRMI

No constants are given. Whether binding was seen depends on the method and setting. In cells and extracts the contact can be indirect. A yes stands for co-enrichment or nearness to the bait. Other partners may have been found. For part of these data: Sequences can lack the tags named with a protein.
